Experimental data taken from PMC12663137 (Nature Communications, 2025).
“And” between values parts separate entries of the source, which are not always exact repeats. Equal entries are not always repeated. This continues a long series; more values of the same kind are listed elsewhere. Values belong to the compound of their own block, whether it stands above or below them.

By UniProt entry, the sequences of proteins in these tests, tags left out. Residues count along the entry.
UniProt Q7L0J3, 141-742 F188A: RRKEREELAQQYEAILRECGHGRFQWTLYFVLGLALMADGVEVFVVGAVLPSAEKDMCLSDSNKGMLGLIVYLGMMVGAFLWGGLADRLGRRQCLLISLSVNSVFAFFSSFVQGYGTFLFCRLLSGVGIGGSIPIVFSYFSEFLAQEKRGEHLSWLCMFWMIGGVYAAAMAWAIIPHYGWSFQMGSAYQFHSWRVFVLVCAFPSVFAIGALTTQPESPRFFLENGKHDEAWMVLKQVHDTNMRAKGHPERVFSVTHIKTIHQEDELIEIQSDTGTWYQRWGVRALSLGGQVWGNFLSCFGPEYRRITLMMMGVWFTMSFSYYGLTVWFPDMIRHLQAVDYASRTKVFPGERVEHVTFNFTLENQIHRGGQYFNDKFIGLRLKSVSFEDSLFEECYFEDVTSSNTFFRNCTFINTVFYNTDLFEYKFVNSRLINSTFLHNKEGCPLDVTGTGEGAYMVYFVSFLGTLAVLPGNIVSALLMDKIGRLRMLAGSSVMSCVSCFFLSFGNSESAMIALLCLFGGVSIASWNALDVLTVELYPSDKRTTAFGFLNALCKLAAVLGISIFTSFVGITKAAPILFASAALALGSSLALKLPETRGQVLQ
UniProt Q7L0J3, whole entry: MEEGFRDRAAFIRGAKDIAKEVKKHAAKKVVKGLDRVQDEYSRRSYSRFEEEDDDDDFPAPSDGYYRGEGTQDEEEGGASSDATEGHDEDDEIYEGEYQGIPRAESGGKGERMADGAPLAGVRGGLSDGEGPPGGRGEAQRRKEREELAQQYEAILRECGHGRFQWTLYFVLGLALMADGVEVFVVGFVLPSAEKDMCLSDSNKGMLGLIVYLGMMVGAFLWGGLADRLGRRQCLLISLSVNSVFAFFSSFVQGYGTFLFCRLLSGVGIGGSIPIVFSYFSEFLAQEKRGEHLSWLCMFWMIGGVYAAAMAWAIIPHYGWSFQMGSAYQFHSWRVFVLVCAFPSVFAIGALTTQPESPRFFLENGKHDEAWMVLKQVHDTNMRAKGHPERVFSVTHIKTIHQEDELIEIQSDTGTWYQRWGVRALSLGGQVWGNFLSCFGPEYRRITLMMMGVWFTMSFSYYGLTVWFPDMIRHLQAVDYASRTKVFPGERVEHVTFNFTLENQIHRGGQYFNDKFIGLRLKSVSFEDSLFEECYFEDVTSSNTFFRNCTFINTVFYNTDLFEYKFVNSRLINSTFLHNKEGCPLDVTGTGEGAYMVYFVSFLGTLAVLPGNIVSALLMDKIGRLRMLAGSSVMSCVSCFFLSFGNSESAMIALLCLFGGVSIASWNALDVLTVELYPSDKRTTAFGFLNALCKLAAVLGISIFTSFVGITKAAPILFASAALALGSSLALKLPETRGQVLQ

Columns and labels:
Assay type in all cases: binding
[1] = biological target: T1, SV2AEM WT or SV2AEM F188A (Homo sapiens, UniProt Q7L0J3); assay: Dissociation kinetics of 3H-UCB-J (Fig. 4E); conditions: WT
T1 construct: expressed in transfected cells; host or cells: HEK293 (ATCC CRL-1573), crude membranes
Experimental: (§1) Ligand binding studies were carried out using crude membranes prepared from HEK293 cells (ATCC, CRL-1573) overexpressing mVenus-SV2AWT or SV2AEM. Membranes were prepared either from transiently transfected cells or from baculovirus-infected cells as described previously. Cells were washed with DPBS (Ca^2+ and Mg^2+ free), followed by resuspending in cold SH buffer (10 mM HEPES-Tris pH 7.4, 320 mM sucrose) containing protease inhibitor cocktail (MedChemExpress) to a density of 10^7 cells/ml. This cell suspension was homogenized by passing through a bead homogenizer (Isobiotec) with 10-micron clearance bead on ice. The lysate was then centrifuged at 4000 × g for 5 min at 4 °C, and the supernatant was aliquoted, frozen in liquid nitrogen, and stored at −80 °C. The mVenus fluorescence estimated using fluorescence size-exclusion chromatography (FSEC) was used to normalize expression levels of mVenus-SV2A mutants studied as detailed previously. For all binding studies, membranes containing […] protein (estimated by BCA method) per reaction were used.
(§2) After 2 h of incubation, ligand dissociation was initiated with 0.3 µM ^1H-UCB-J and radioactivity was monitored at indicated time points by trapping equal volume of membranes on PEI-treated Unifilter-GF/C 96-well filter plates. Dissociation half-life (t1/2) estimates were obtained by fitting the data to one-phase exponential decay using GraphPad Prism 10.

[2] = biological target: T2, SV2AEM WT or SV2AEM F188A (Homo sapiens, UniProt Q7L0J3, F188A); assay: Dissociation kinetics of 3H-UCB-J (Fig. 4E); conditions: F188A, 30 µM UCB1244283, 1 min
T2 construct: expressed in transfected cells; host or cells: HEK293 (ATCC CRL-1573), crude membranes
Experimental: as §1, §2

[3] = biological target: T3, SV2AWT (Homo sapiens, UniProt Q7L0J3); assay: Competitive displacement of 10 nM 3H-UCB-J, SV2AWT membranes (Fig. 1A); conditions: SV2A_WT
T3 construct: expressed in transfected cells; host or cells: HEK293 (ATCC CRL-1573), crude membranes
Experimental: as §1
To obtain dose-response curves of studied SV2A ligands, membranes diluted in 0.2 ml binding buffer (50 mM Tris-Cl, pH 7.4, and 2 mM MgCl2) were incubated with indicated concentrations of ligands for 30 min at 4 °C. […] Radioactivity was monitored in MicroBeta2 plate counter (Revvity). […]

3H-UCB-J Binding (%) ([1]; 30 µM UCB1244283, 1 min): 73.54% and 130.00% and 124.67%
3H-UCB-J Binding (%) ([1]; 30 µM UCB1244283, 2 min): 74.53% and 115.05% and 117.86%
3H-UCB-J Binding (%) ([1]; 30 µM UCB1244283, 3 min): 75.27% and 132.61% and 111.58%
3H-UCB-J Binding (%) [2]: 56.86% and 87.40%
SMILES: COc1ccccc1NC(=O)CC(C)Cc1cc(C)cc(C)c1 (stereo not drawn) [UCB1244283]

Binding of 3H-UCB-J (%) ([3]; Log [1H-UCB-J] (M) -5.000): -0.58% and -0.14% and 0.00% and 0.14%
SMILES: Cc1cnccc1CN1C[C@@H](c2cc(F)c(F)c(F)c2)CC1=O [UCB-J]

Binding of 3H-UCB-J (%) ([3]; Log [Padsevonil] (M) -5.523): -0.02%
SMILES: COCc1nn2c(CN3C[C@@H](CC(F)(F)Cl)CC3=O)c(C(F)(F)F)nc2s1 [padsevonil]
